Data as given in PubChem BioAssay AID504764 (Drosophila RNAi Screening Center, 2011).

Assay: 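Knock-downs that raise or lower a Notch target reporter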 (primary screen)
Cell system: Drosophila Kc167 cells
Knock-down reagent: long dsRNA against Drosophila genes
Time to read-out: about 5 days (4 days dsRNA, then 24 h after transfection)
Conditions: transfection of constitutively active membrane-tethered Notch lacking the extracellular domain, read 24 h later
Detection: 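Light from a Notch-responsive E(spl)m3 luciferase reporter under active Notch, with control-promoter and no-Notch reporter wells to normalise; raw counts from paired wells a and b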
Reading the numbers: induced reporter light, run 1, well a and induced reporter light, run 1, well b: higher = more light from the Notch target reporter with active Notch; control promoter light, run 1, well a and control promoter light, run 1, well b: higher = more light from the viral control promoter (cell number, transfection, viability); uninduced reporter light, run 1, well a: higher = more light from the Notch target reporter without active Notch
Call rule: 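Wells with low control signal or poorly matching duplicates excluded; duplicates averaged; per source plate, z beyond ±2 for induced/control log2 ratio or beyond ±1.8 for induced/uninduced marks a hit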
Calls: active = modifier hit (raised or lowered Notch signal); inactive = not a hit
In all, the deposit lists about 22,000 reagents; below is an unselected part of those that have a named target and a result. Over the whole deposit, 403 (1.9%) are marked active. 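Unnormalised raw counts per well; ratio z-scores behind the hit calls and whether each hit raises or lowers signal are not deposited.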 Not stated in the record: the amount of reagent.

After knock-down of CG32132 (retired record) [DRSC22437], the screen gave inactive.
With knock-down of Acp26Ab [DRSC01856], the record shows induced reporter light, run 1, well a = 1.06e5; induced reporter light, run 1, well b = 89435; control promoter light, run 1, well a = 82840; control promoter light, run 1, well b = 71245; uninduced reporter light, run 1, well a = 4500; inactive.
With knock-down of Irp-1A [DRSC16719] the results were induced reporter light, run 1, well a = 1.70e5; induced reporter light, run 1, well b = 1.69e5; control promoter light, run 1, well a = 2.79e5; control promoter light, run 1, well b = 2.18e5; uninduced reporter light, run 1, well a = 15965; inactive.
With knock-down of CG32301 [DRSC08613] the results were induced reporter light, run 1, well a = 94295; induced reporter light, run 1, well b = 98910; control promoter light, run 1, well a = 1.30e5; control promoter light, run 1, well b = 1.75e5; uninduced reporter light, run 1, well a = 6465; inactive.
Vha14-2 [DRSC12145] scored induced reporter light, run 1, well a = 88965; induced reporter light, run 1, well b = 81850; control promoter light, run 1, well a = 69665; control promoter light, run 1, well b = 61445; uninduced reporter light, run 1, well a = 6515; inactive.
dpr1 [DRSC05906] showed induced reporter light, run 1, well a = 1.02e5; induced reporter light, run 1, well b = 1.27e5; control promoter light, run 1, well a = 1.32e5; control promoter light, run 1, well b = 1.31e5; uninduced reporter light, run 1, well a = 8982; inactive.
Silencing of dpr1 [DRSC06399] came out at: induced reporter light, run 1, well a = 1.27e5; induced reporter light, run 1, well b = 1.48e5; control promoter light, run 1, well a = 1.78e5; control promoter light, run 1, well b = 2.05e5; uninduced reporter light, run 1, well a = 7250; inactive.
CG30154 [DRSC05889] gave induced reporter light, run 1, well a = 1.30e5; induced reporter light, run 1, well b = 1.22e5; control promoter light, run 1, well a = 1.50e5; control promoter light, run 1, well b = 1.38e5; uninduced reporter light, run 1, well a = 11835; inactive.
Calx [DRSC13457] showed induced reporter light, run 1, well a = 76945; induced reporter light, run 1, well b = 72320; control promoter light, run 1, well a = 1.08e5; control promoter light, run 1, well b = 79790; uninduced reporter light, run 1, well a = 10935; inactive.
Calx [DRSC13459] showed induced reporter light, run 1, well a = 50650; induced reporter light, run 1, well b = 46040; control promoter light, run 1, well a = 56795; control promoter light, run 1, well b = 60495; uninduced reporter light, run 1, well a = 7015; inactive.
Depletion of Calx [DRSC16599] resulted in: induced reporter light, run 1, well a = 1.70e5; induced reporter light, run 1, well b = 1.85e5; control promoter light, run 1, well a = 2.23e5; control promoter light, run 1, well b = 2.18e5; uninduced reporter light, run 1, well a = 13720; inactive.
CG2614 [DRSC02711] showed induced reporter light, run 1, well a = 2.11e5; induced reporter light, run 1, well b = 1.74e5; control promoter light, run 1, well a = 3.15e5; control promoter light, run 1, well b = 3.13e5; uninduced reporter light, run 1, well a = 13215; inactive.
Silencing of Spt7 [DRSC19997] resulted in: induced reporter light, run 1, well a = 1.86e5; induced reporter light, run 1, well b = 2.01e5; control promoter light, run 1, well a = 1.50e5; control promoter light, run 1, well b = 1.01e5; uninduced reporter light, run 1, well a = 14550; inactive.
With knock-down of ImpL1 [DRSC11197], the screen gave induced reporter light, run 1, well a = 1.37e5; induced reporter light, run 1, well b = 1.37e5; control promoter light, run 1, well a = 89450; control promoter light, run 1, well b = 65725; uninduced reporter light, run 1, well a = 11105; inactive.
AGO1 [DRSC05912] showed induced reporter light, run 1, well a = 1.12e5; induced reporter light, run 1, well b = 1.12e5; control promoter light, run 1, well a = 1.60e5; control promoter light, run 1, well b = 1.34e5; uninduced reporter light, run 1, well a = 9465; inactive.
COX7A [DRSC16514] showed induced reporter light, run 1, well a = 86965; induced reporter light, run 1, well b = 1.03e5; control promoter light, run 1, well a = 95690; control promoter light, run 1, well b = 72075; uninduced reporter light, run 1, well a = 4530; inactive.
Dredd [DRSC18461] gave induced reporter light, run 1, well a = 43025; induced reporter light, run 1, well b = 47530; control promoter light, run 1, well a = 47545; control promoter light, run 1, well b = 59000; uninduced reporter light, run 1, well a = 3035; inactive.
For CG2772 [DRSC00530] the deposit lists induced reporter light, run 1, well a = 2.35e5; induced reporter light, run 1, well b = 1.85e5; control promoter light, run 1, well a = 2.07e5; control promoter light, run 1, well b = 2.18e5; uninduced reporter light, run 1, well a = 12230; inactive.
CG31926 [DRSC00295] gave induced reporter light, run 1, well a = 1.17e5; induced reporter light, run 1, well b = 1.20e5; control promoter light, run 1, well a = 79655; control promoter light, run 1, well b = 82830; uninduced reporter light, run 1, well a = 10092; inactive.
CG40282 (retired record) [DRSC07814] showed induced reporter light, run 1, well a = 99370; induced reporter light, run 1, well b = 1.25e5; control promoter light, run 1, well a = 2.18e5; control promoter light, run 1, well b = 1.93e5; uninduced reporter light, run 1, well a = 7878; inactive.
Against Synd [DRSC15116], the entry reads induced reporter light, run 1, well a = 2.19e5; induced reporter light, run 1, well b = 2.05e5; control promoter light, run 1, well a = 2.49e5; control promoter light, run 1, well b = 2.81e5; uninduced reporter light, run 1, well a = 13335; inactive.
With knock-down of MED18 [DRSC18549] the results were induced reporter light, run 1, well a = 1.05e5; induced reporter light, run 1, well b = 1.07e5; control promoter light, run 1, well a = 1.99e5; control promoter light, run 1, well b = 2.25e5; uninduced reporter light, run 1, well a = 10295; inactive.
For ATP6 (retired record) [DRSC21278], the entry reads induced reporter light, run 1, well a = 86400; induced reporter light, run 1, well b = 1.11e5; control promoter light, run 1, well a = 1.17e5; control promoter light, run 1, well b = 1.19e5; uninduced reporter light, run 1, well a = 11028; inactive.
CkIIbeta [DRSC20230] scored induced reporter light, run 1, well a = 69370; induced reporter light, run 1, well b = 67090; control promoter light, run 1, well a = 73740; control promoter light, run 1, well b = 1.05e5; uninduced reporter light, run 1, well a = 5930; inactive.

An excerpt from above, reduced to “control promoter light, run 1, well a”.
Calx [DRSC16599] = 2.23e5
CG2614 [DRSC02711] = 3.15e5
